Laboratory results taken from publication PMC7819943, “Rice protein-binding microarrays: a tool to detect cis-acting elements near promoter regions in rice”.
The other results are listed elsewhere or left out.

The sequences below were run against T1, OsSMF1 (Oryza sativa, UniProt Q6ZLB0 1-436) (assay: protein-binding microarray (RPBM); PBS, 2% BSA, 51.3 ng/ul salmon testes DNA, 50 uM zinc acetate, 200 nM TF, 25 C, 1 h; high values mean tight binding). Settings: protein: recombinant; tags: N-terminal polyhistidine and DsRed monomer fusion (pET32a); chain copies: 2; label: CyDye5-dUTP incorporated in the synthesized complementary strand; 3' TTTTT single-stranded linker to array surface; dsDNA, one strand shown.
T1 sequence: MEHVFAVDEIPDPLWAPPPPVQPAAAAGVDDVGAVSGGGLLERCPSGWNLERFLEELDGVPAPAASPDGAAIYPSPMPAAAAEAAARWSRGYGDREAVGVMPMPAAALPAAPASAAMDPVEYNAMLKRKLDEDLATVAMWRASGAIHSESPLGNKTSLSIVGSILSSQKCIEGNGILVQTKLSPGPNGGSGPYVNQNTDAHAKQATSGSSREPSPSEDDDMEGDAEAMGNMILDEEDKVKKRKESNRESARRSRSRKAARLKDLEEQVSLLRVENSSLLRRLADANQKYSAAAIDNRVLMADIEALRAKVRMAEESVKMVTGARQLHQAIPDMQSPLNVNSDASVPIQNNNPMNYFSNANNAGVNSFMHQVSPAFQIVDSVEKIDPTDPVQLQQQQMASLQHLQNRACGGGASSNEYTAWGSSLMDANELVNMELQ
In short: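 Polyhistidine-tagged DsRed fusions of transcription factors, joined at the N-terminus, were expressed in E. coli BL21-CodonPlus and isolated on Ni–NTA. They were incubated at 200 nM for 1 h at 25 °C on a custom Agilent array, double-stranded and BSA-blocked, in PBS with 2% BSA, salmon testes DNA and 50 µM zinc acetate. The binding signal is per-feature fluorescence intensity (arbitrary units) read on an Axon 4000B scanner after washing.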

Sequence	binding signal
AATAATTAATTCATTTGTTTATACACTTAAATAGCTAATACGGAGTCACCTAGTGCAG	11000 fluorescence intensity (a.u.)
ATCTAGAAAGATGACCTACCTGAGGTGTAATTTTACACTCCGGAGTCACCTAGTGCAG	3640 fluorescence intensity (a.u.)
ATGATAGATTACATATTTACAGTGATTAAGCATAGCATTACGGAGTCACCTAGTGCAG	3510 fluorescence intensity (a.u.)
ACCCGGTGATCCGCTAATAGATACGTTGGTTTACAATAGTCGGAGTCACCTAGTGCAG	3670 fluorescence intensity (a.u.)
TGCGTTTCTCAAATTATACAAGTCATGATGGATATGTCGTCGGAGTCACCTAGTGCAG	4180 fluorescence intensity (a.u.)
AAACATTGACTCTCTCCGTCCCTAAATATTTAACTGTCCGCGGAGTCACCTAGTGCAG	6930 fluorescence intensity (a.u.)
ACCGAAGTATTCTCGGTTAGTTGCGCCACGCCATGCACGCCGGAGTCACCTAGTGCAG	4940 fluorescence intensity (a.u.)
CAAGCCGTCCACCCACTTCCGCTTCCCCACGTGCCGCTCGCGGAGTCACCTAGTGCAG	3840 fluorescence intensity (a.u.)
TAGATTCGATATGAACGGTCCAGATCCAGGTGGAGGGAGGCGGAGTCACCTAGTGCAG	3820 fluorescence intensity (a.u.)
GAGATGAAGAGGGTACACATGACAGGTGGGAGGTAGAATTCGGAGTCACCTAGTGCAG	3200 fluorescence intensity (a.u.)
ACTAAGCTTCAATCTGCCATCATCATGGATATGATCATTGCGGAGTCACCTAGTGCAG	3870 fluorescence intensity (a.u.)
ACACAGGTCCGGCACAAACCAAACTATCTCCCCGTGTCAACGGAGTCACCTAGTGCAG	3760 fluorescence intensity (a.u.)
GTACCGAACACAGCCACGTAATCATGCAGGTTGCAGCCACCGGAGTCACCTAGTGCAG	10700 fluorescence intensity (a.u.)
TGCAACGGCGTCACCACAAATATCCATCCATGCTCGTCATCGGAGTCACCTAGTGCAG	4760 fluorescence intensity (a.u.)
CCCGTAGTCCATATCAGCATGACGTGATCATGAAGCAGGCCGGAGTCACCTAGTGCAG	13600 fluorescence intensity (a.u.)
GGGAGTTGGGAGTTGGGACTCCCTGTGCCTCTCCTCTCCACGGAGTCACCTAGTGCAG	19600 fluorescence intensity (a.u.)
TTACAGTAGTTGAGACAACAAATACTCTAATCATTAACTCCGGAGTCACCTAGTGCAG	27900 fluorescence intensity (a.u.)
AAAGATTGAGGGGAAGGGTGATAGGTGGGCCCCACGTGGGCGGAGTCACCTAGTGCAG	7630 fluorescence intensity (a.u.)
ACTGAGATGGGAAAGTGTTAGTCACATTGCCTGCCTATGTCGGAGTCACCTAGTGCAG	3430 fluorescence intensity (a.u.)
ATTTTCTTGTTTTACGTGTGACTTAATCTTCAATTTCATCCGGAGTCACCTAGTGCAG	3430 fluorescence intensity (a.u.)
CTTGTATGATTGTATCCCCTGACATGGCACCACACGCAGTCGGAGTCACCTAGTGCAG	8140 fluorescence intensity (a.u.)
CTTGGCGCCACGTGCGCGGTGCCGCGGTGTGCGCGGCCGACGGAGTCACCTAGTGCAG	7180 fluorescence intensity (a.u.)
TGGGGTTATGGCTATATGGGCCGTCGTTGCGCTGACAGGACGGAGTCACCTAGTGCAG	4030 fluorescence intensity (a.u.)
CCCGTCTCGCCTCCTCCGCAAGTGACGTCGACGCCTCATCCGGAGTCACCTAGTGCAG	7820 fluorescence intensity (a.u.)
TCGCGTGCTCGCGTCACGAGCTGCTGAAATACCTCGCTTTCGGAGTCACCTAGTGCAG	4530 fluorescence intensity (a.u.)
GGCGTTGTTGTGTATGGGCTGTAATGTTAGTGGGCTGACACGGAGTCACCTAGTGCAG	3350 fluorescence intensity (a.u.)
GAAGATCAATGATTCACTGTTTACTCGGCTTCTTCGCTGTCGGAGTCACCTAGTGCAG	5850 fluorescence intensity (a.u.)

5 neighbouring records from above, quoted:
Sequence	binding signal
ACCCGGTGATCCGCTAATAGATACGTTGGTTTACAATAGTCGGAGTCACCTAGTGCAG	3670 fluorescence intensity (a.u.)
TGCGTTTCTCAAATTATACAAGTCATGATGGATATGTCGTCGGAGTCACCTAGTGCAG	4180 fluorescence intensity (a.u.)
AAACATTGACTCTCTCCGTCCCTAAATATTTAACTGTCCGCGGAGTCACCTAGTGCAG	6930 fluorescence intensity (a.u.)
ACCGAAGTATTCTCGGTTAGTTGCGCCACGCCATGCACGCCGGAGTCACCTAGTGCAG	4940 fluorescence intensity (a.u.)
CAAGCCGTCCACCCACTTCCGCTTCCCCACGTGCCGCTCGCGGAGTCACCTAGTGCAG	3840 fluorescence intensity (a.u.)

(next part)

Sequence	binding signal
GCCGCCTGGAATAAAAGGCGCACAGGGCTTTGGGAGTTTGCGGAGTCACCTAGTGCAG	3950 fluorescence intensity (a.u.)
CCGCGCCTCTCCTCGCCTCCGCCTCCGTGCGCGGCTGCCGCGGAGTCACCTAGTGCAG	3690 fluorescence intensity (a.u.)
CTTCCCCACCACGGACACCGTCACCACGCGCCCGCTCCGCCGGAGTCACCTAGTGCAG	4160 fluorescence intensity (a.u.)
TTTTGGATCAATGACGAGGTGGATGCAGTGACAAAGCAGTCGGAGTCACCTAGTGCAG	5640 fluorescence intensity (a.u.)
ATGTCTCTCGCAGTCGCTGTCAGTCTGTCTTGTGTCCGCACGGAGTCACCTAGTGCAG	3220 fluorescence intensity (a.u.)
ACCAAACATTACCTAATGCAATCGAACTATCGAAGACATGCGGAGTCACCTAGTGCAG	3700 fluorescence intensity (a.u.)
TACGGACCACCTGGGTTTGTCATGGGGTTTACTCCCATCCCGGAGTCACCTAGTGCAG	23400 fluorescence intensity (a.u.)
GGCAATCCCGCCACGTAAGCACCGGCCGTTATAACGGCATCGGAGTCACCTAGTGCAG	8070 fluorescence intensity (a.u.)
CTTGCCGTCGAAGCGAAGGAACCGCCACCCGACGTCAGCTCGGAGTCACCTAGTGCAG	5050 fluorescence intensity (a.u.)
GCAGCAGAAATGGCAGCAAGGGTCGTACGTGGATGTGTCCCGGAGTCACCTAGTGCAG	4980 fluorescence intensity (a.u.)
GACGGCCCAGCCCATGGCATGGCGCTTTGGCACGGCCCAGCGGAGTCACCTAGTGCAG	3960 fluorescence intensity (a.u.)
CCACACCAGGGCCTTGTACTCGATGCATCACCCTTGGAAACGGAGTCACCTAGTGCAG	4610 fluorescence intensity (a.u.)
GGTAATGATGTGGCGAATGATGACATCACACAAAATGATACGGAGTCACCTAGTGCAG	6760 fluorescence intensity (a.u.)
GTAGTTCCACGTGTCCTTCTTCTCCATGTCACGCCGGCTGCGGAGTCACCTAGTGCAG	22600 fluorescence intensity (a.u.)
CTAGTCTTGGTCAGCGTCGCCGCGCCCCATACGTGTGGGCCGGAGTCACCTAGTGCAG	3330 fluorescence intensity (a.u.)
ACCATTGTTCAGTGAGGCAGAAAACCTGTCACCGCTCGCACGGAGTCACCTAGTGCAG	3780 fluorescence intensity (a.u.)
TGGACAGTGATGTGGCATCAGAAGTTCAGAACTCTCAAGTCGGAGTCACCTAGTGCAG	5900 fluorescence intensity (a.u.)
ATTTCATCCTTATTAGGGCCTATTTGGAGCATTGGCAGGGCGGAGTCACCTAGTGCAG	3750 fluorescence intensity (a.u.)
CTGTGGTGGTGTGCATACGGGTTGGGGTGGAGGGCTGCTCCGGAGTCACCTAGTGCAG	4220 fluorescence intensity (a.u.)
CTATTAAGTTGACTGTAAATAATTTGGAGCCAGCAGTTTGCGGAGTCACCTAGTGCAG	3400 fluorescence intensity (a.u.)
CGTACACACACATCACTGCTGATGAATCAACCCAACCTCGCGGAGTCACCTAGTGCAG	3490 fluorescence intensity (a.u.)
TTGGTGACAATAGAGAAAGTTGAGTACGTGTGATGCTCAGCGGAGTCACCTAGTGCAG	4990 fluorescence intensity (a.u.)
TATACGTGTTGACATGGCGGGGAGTGGCTCGTCTCCCGTCCGGAGTCACCTAGTGCAG	6110 fluorescence intensity (a.u.)
TTGAGTAGGCAACGGAGGTCAGGGACGTGGACTCCCGCGTCGGAGTCACCTAGTGCAG	4810 fluorescence intensity (a.u.)
GCAGCGGCGTCAGCTGCGCGTGCCCCGCCTCCGACGCTATCGGAGTCACCTAGTGCAG	3630 fluorescence intensity (a.u.)
CTCTCTTCCTCTCTCTCTCCTCCGCGTAGGATTTAGCCTGCGGAGTCACCTAGTGCAG	3880 fluorescence intensity (a.u.)
TATGGTTCTAAGCATGACTAGGACTGATGCAGCACAAAGTCGGAGTCACCTAGTGCAG	6870 fluorescence intensity (a.u.)
